This is an account of results in paper PMC11270928.

Results are given in words; binding and its absence hold for the method and conditions named. In cells and extracts the contact can be indirect. Some binding calls cover weakened binding; strength is not graded here.

In this assay the target is T1, wingless Type MMTV Integration Site Family, Member 5 A (WNT5A) (human (endogenous in GC cells; cell line not named for the Co-IP)) (UniProt P41221).
T1 sequence: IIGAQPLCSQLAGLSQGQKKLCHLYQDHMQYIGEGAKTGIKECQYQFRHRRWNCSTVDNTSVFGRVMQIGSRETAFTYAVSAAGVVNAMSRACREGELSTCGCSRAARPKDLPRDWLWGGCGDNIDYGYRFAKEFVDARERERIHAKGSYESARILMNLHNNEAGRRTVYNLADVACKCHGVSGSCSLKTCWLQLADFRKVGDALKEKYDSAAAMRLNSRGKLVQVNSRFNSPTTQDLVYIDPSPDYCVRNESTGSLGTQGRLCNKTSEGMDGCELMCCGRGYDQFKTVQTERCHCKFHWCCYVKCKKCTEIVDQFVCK
Kind of assay: co-IP; cell lysates incubated with agarose coupled anti-WNT5A, anti-HK2 or anti-IgG; complex eluted, proteins detected by western blot. For orientation: Immunoblotting shows a protein as a band on a membrane.

B1: hexokinase 2 (HK2) (enzyme, UniProt P52789 1-917)
chain: MIASHLLAYFFTELNHDQVQKVDQYLYHMRLSDETLLEISKRFRKEMEKGLGATTHPTAAVKMLPTFVRSTPDGTEHGEFLALDLGGTNFRVLWVKVTDNGLQKVEMENQIYAIPEDIMRGSGTQLFDHIAECLANFMDKLQIKDKKLPLGFTFSFPCHQTKLDESFLVSWTKGFKSSGVEGRDVVALIRKAIQRRGDFDIDIVAVVNDTVGTMMTCGYDDHNCEIGLIVGTGSNACYMEEMRHIDMVEGDEGRMCINMEWGAFGDDGSLNDIRTEFDQEIDMGSLNPGKQLFEKMISGMYMGELVRLILVKMAKEELLFGGKLSPELLNTGRFETKDISDIEGEKDGIRKAREVLMRLGLDPTQEDCVATHRICQIVSTRSASLCAATLAAVLQRIKENKGEERLRSTIGVDGSVYKKHPHFAKRLHKTVRRLVPGCDVRFLRSEDGSGKGAAMVTAVAYRLADQHRARQKTLEHLQLSHDQLLEVKRRMKVEMERGLSKETHASAPVKMLPTYVCATPDGTEKGDFLALDLGGTNFRVLLVRVRNGKWGGVEMHNKIYAIPQEVMHGTGDELFDHIVQCIADFLEYMGMKGVSLPLGFTFSFPCQQNSLDESILLKWTKGFKASGCEGEDVVTLLKEAIHRREEFDLDVVAVVNDTVGTMMTCGFEDPHCEVGLIVGTGSNACYMEEMRNVELVEGEEGRMCVNMEWGAFGDNGCLDDFRTEFDVAVDELSLNPGKQRFEKMISGMYLGEIVRNILIDFTKRGLLFRGRISERLKTRGIFETKFLSQIESDCLALLQVRAILQHLGLESTCDDSIIVKEVCTVVARRAAQLCGAGMAAVVDRIRENRGLDALKVTVGVDGTLYKLHPHFAKVMHETVKDLAPKCDVSFLQSEDGSGKGAALITAVACRIREAGQR
Take B1: the binding result was “binds”.
